At least one structure is not confirmed: it was looked up by name or label, or the drawing left a doubt.
Target: T1, human α-thrombin (Homo sapiens, UniProt P00734)
T1 construct: Purified human α-thrombin; purchased Enzyme Research Laboratories (South Bend, Ind.)
Experiment: In vitro inhibition of purified thrombin, p-nitroanilide substrate hydrolysis
Type: biochemical
Conditions: summary of Table 1, versus FXa, chymotrypsin, elastase, plasmin, trypsin
Excerpt: Reagents: All buffer salts were obtained from Sigma Chemical Company (St. Louis, Mo.), and were of the highest purity available. The enzyme substrates, N-benzoyl-Phe-Val-Arg-p-nitroanilide (Sigma B7632), N-benzoyl-Ile-Glu-Gly-Arg-p-nitroanilide hydrochloride (Sigma B2291), N-p-Tosyl-Gly-Pro-Lys-p-nitroanilide (Sigma T6140), N-succinyl-Ala-Ala-Pro-Phe-p-nitroanilide (Sigma S7388) and N-CBZ-Val-Gly-Arg-p-nitroanilide (Sigma C7271) were obtained from Sigma.
Human α-thrombin, human factor Xa and human plasmin were obtained from Enzyme Research Laboratories (South Bend, Ind.). […]
Ki Determinations: All assays are based on the ability of the test compound to inhibit the enzyme catalyzed hydrolysis of a peptide p-nitroanilide substrate. […] In general, substrate concentrations are lower than the experimentally determined value for Km. […]
Reactions were initiated by the addition of a 10 μL aliquot of enzyme and the absorbance increase at 405 nm is recorded for 15 minutes. […] The ratio of the velocity (rate of change in absorbance as a function of time) for a sample containing no test compound is divided by the velocity of a sample containing test compound, and is plotted as a function of test compound concentration. The data are fit to a linear regression, and the value of the slope of the line calculated. The inverse of the slope is the experimentally determined Ki value. […]

SMILES: Cc1cc(OCCCNNC(=N)N)cc(OS(=O)(=O)c2ccccc2Cl)c1 [Example 82, 3-[3-(2-Chlorophenylsulfonyloxy)-5-methylphenoxy]propylaminoguanidine Diacetate]
- Thrombin inhibition and selectivity, in words: potent and highly selective inhibitors of thrombin
